Reference: patent US20100041694A1, “AGRICULTURAL COMPOSITION FOR CONTROLLING OR PREVENTING PLANT DISEASES CAUSED BY PLANT PATHOGENIC MICROBES” (Sumitomo Chemical Company, Limited, priority 2007, published 2010)
Some of these results come from one statement about several compounds together.

Assays:
Type in all cases: in vivo
Sclerotinia sclerotiorum [1] = test: Preventing infection by cucumber Sclerotinia rot, foliage application; conditions: cucumber (Sagami-Hanjiro), flowable formulation 500 ppm foliage application, then inoculation; 18° C. high humidity 4 days
[2] = test system: Verticillium albo-atrum, V. dahliae, V. nigrescens; test: Potato blue stem, soil irrigation treatment; conditions: potato (Danshaku) in contaminated soil, 10 mg compound per pot by soil irrigation, 2 months
Gaeumannomyces graminis = test: Malt damping off, seed treatment; conditions: contaminated malt seeds, seed treatment 200 g compound per 100 kg seeds, 1 month
Gibberella fujikuroi = test: Rice bakanae disease, seed treatment; conditions: contaminated unhulled rice, seed treatment 200 g compound per 100 kg seeds, 1 month
Fusarium oxysporum = test: Preventing infection by tomato wilt by soil treatment (irrigation); conditions: tomato (Patio) in contaminated soil, 10 mg compound per pot by soil irrigation, 1 month
Sclerotinia sclerotiorum [3] = test: Preventing infection by cucumber sclerotical disease by soil treatment (irrigation); conditions: cucumber (Sagami-Hanjiro), 1 mg compound per pot by soil irrigation, inoculation after 1 week; 18° C. high humidity 4 days
Botrytis cinerea = test: Preventing infection by cucumber gray mold, foliage application; conditions: cucumber (Sagami-Hanjiro), flowable formulation 500 ppm foliage application, then inoculation; 12° C. high humidity 5 days

O=C(NCc1ccccc1)c1ccc2ncsc2c1 [Compound 33]
infected areas of treated plants relative to infected areas of untreated plants (Sclerotinia sclerotiorum [1]): ≤ 10% | blotches in treated plants [2]: no blotches are found | growth of treated plants [2]: favorably grow at a level equivalent to that of plants that grow in noncontaminated soil | growth of treated plants (Gaeumannomyces graminis): favorably grow at a level equivalent to that of plants that grow from noncontaminated seeds | growth of treated plants (Gibberella fujikuroi): favorably grow at a level equivalent to that of plants that have grown from noncontaminated unhulled rice | blotches in treated plants (Fusarium oxysporum): no blotches are found | growth of treated plants (Fusarium oxysporum): favorably grow at a level equivalent to that of plants that grow have in noncontaminated soil | infected areas of treated plants relative to infected areas of untreated plants (Sclerotinia sclerotiorum [3]): ≤ 10%

O=C(NCc1ccc(F)cc1)c1ccc2ncccc2c1 [Compound 48]
infected areas of treated plants relative to infected areas of untreated plants (Sclerotinia sclerotiorum [1]): ≤ 10% | blotches in treated plants [2]: no blotches are found | growth of treated plants [2]: favorably grow at a level equivalent to that of plants that grow in noncontaminated soil | growth of treated plants (Gaeumannomyces graminis): favorably grow at a level equivalent to that of plants that grow from noncontaminated seeds | growth of treated plants (Gibberella fujikuroi): favorably grow at a level equivalent to that of plants that have grown from noncontaminated unhulled rice | blotches in treated plants (Fusarium oxysporum): no blotches are found | growth of treated plants (Fusarium oxysporum): favorably grow at a level equivalent to that of plants that grow have in noncontaminated soil | infected areas of treated plants relative to infected areas of untreated plants (Sclerotinia sclerotiorum [3]): ≤ 10%

O=C(Cc1ccccc1F)Nc1ccc2ncccc2c1 [Compound 52]
infected areas of treated plants relative to infected areas of untreated plants (Sclerotinia sclerotiorum [1]): ≤ 10% | blotches in treated plants [2]: no blotches are found | growth of treated plants [2]: favorably grow at a level equivalent to that of plants that grow in noncontaminated soil | growth of treated plants (Gaeumannomyces graminis): favorably grow at a level equivalent to that of plants that grow from noncontaminated seeds | growth of treated plants (Gibberella fujikuroi): favorably grow at a level equivalent to that of plants that have grown from noncontaminated unhulled rice | blotches in treated plants (Fusarium oxysporum): no blotches are found | growth of treated plants (Fusarium oxysporum): favorably grow at a level equivalent to that of plants that grow have in noncontaminated soil | infected areas of treated plants relative to infected areas of untreated plants (Sclerotinia sclerotiorum [3]): ≤ 10%

O=C(NCc1cccc(F)c1F)c1ccc2ncccc2c1 [Compound 65]
infected areas of treated plants relative to infected areas of untreated plants (Sclerotinia sclerotiorum [1]): ≤ 10% | blotches in treated plants [2]: no blotches are found | growth of treated plants [2]: favorably grow at a level equivalent to that of plants that grow in noncontaminated soil | growth of treated plants (Gaeumannomyces graminis): favorably grow at a level equivalent to that of plants that grow from noncontaminated seeds | growth of treated plants (Gibberella fujikuroi): favorably grow at a level equivalent to that of plants that have grown from noncontaminated unhulled rice | blotches in treated plants (Fusarium oxysporum): no blotches are found | growth of treated plants (Fusarium oxysporum): favorably grow at a level equivalent to that of plants that grow have in noncontaminated soil | infected areas of treated plants relative to infected areas of untreated plants (Sclerotinia sclerotiorum [3]): ≤ 10%

COCc1ccc(CNC(=O)c2ccc3ncccc3c2)cc1 [Compound 70]
infected areas of treated plants relative to infected areas of untreated plants (Sclerotinia sclerotiorum [1]): ≤ 10% | blotches in treated plants [2]: no blotches are found | growth of treated plants [2]: favorably grow at a level equivalent to that of plants that grow in noncontaminated soil | growth of treated plants (Gaeumannomyces graminis): favorably grow at a level equivalent to that of plants that grow from noncontaminated seeds | growth of treated plants (Gibberella fujikuroi): favorably grow at a level equivalent to that of plants that have grown from noncontaminated unhulled rice | blotches in treated plants (Fusarium oxysporum): no blotches are found | growth of treated plants (Fusarium oxysporum): favorably grow at a level equivalent to that of plants that grow have in noncontaminated soil | infected areas of treated plants relative to infected areas of untreated plants (Sclerotinia sclerotiorum [3]): ≤ 10%

O=C(NCc1cccc(OC(F)F)c1)c1ccc2ncccc2c1 [Compound 74]
infected areas of treated plants relative to infected areas of untreated plants (Sclerotinia sclerotiorum [1]): ≤ 10% | blotches in treated plants [2]: no blotches are found | growth of treated plants [2]: favorably grow at a level equivalent to that of plants that grow in noncontaminated soil | growth of treated plants (Gaeumannomyces graminis): favorably grow at a level equivalent to that of plants that grow from noncontaminated seeds | growth of treated plants (Gibberella fujikuroi): favorably grow at a level equivalent to that of plants that have grown from noncontaminated unhulled rice | blotches in treated plants (Fusarium oxysporum): no blotches are found | growth of treated plants (Fusarium oxysporum): favorably grow at a level equivalent to that of plants that grow have in noncontaminated soil | infected areas of treated plants relative to infected areas of untreated plants (Sclerotinia sclerotiorum [3]): ≤ 10%

COc1cccc(CNC(=S)c2ccc3ncccc3c2)c1F [Compound 166]
infected areas of treated plants relative to infected areas of untreated plants (Sclerotinia sclerotiorum [1]): ≤ 10% | blotches in treated plants [2]: no blotches are found | growth of treated plants [2]: favorably grow at a level equivalent to that of plants that grow in noncontaminated soil | infected areas of treated plants relative to infected areas of untreated plants (Botrytis cinerea): ≤ 10% | growth of treated plants (Gaeumannomyces graminis): favorably grow at a level equivalent to that of plants that grow from noncontaminated seeds | growth of treated plants (Gibberella fujikuroi): favorably grow at a level equivalent to that of plants that have grown from noncontaminated unhulled rice | blotches in treated plants (Fusarium oxysporum): no blotches are found | growth of treated plants (Fusarium oxysporum): favorably grow at a level equivalent to that of plants that grow have in noncontaminated soil

O=C(NCc1ccn(Cc2cccc(F)c2)c1)c1ccc2ncccc2c1 [Compound 171]
infected areas of treated plants relative to infected areas of untreated plants (Sclerotinia sclerotiorum [1]): ≤ 10% | blotches in treated plants [2]: no blotches are found | growth of treated plants [2]: favorably grow at a level equivalent to that of plants that grow in noncontaminated soil | infected areas of treated plants relative to infected areas of untreated plants (Botrytis cinerea): ≤ 10% | growth of treated plants (Gaeumannomyces graminis): favorably grow at a level equivalent to that of plants that grow from noncontaminated seeds | growth of treated plants (Gibberella fujikuroi): favorably grow at a level equivalent to that of plants that have grown from noncontaminated unhulled rice | blotches in treated plants (Fusarium oxysporum): no blotches are found | growth of treated plants (Fusarium oxysporum): favorably grow at a level equivalent to that of plants that grow have in noncontaminated soil

O=C(NCc1ccccc1F)c1ccc2ncsc2c1 [Compound 175]
infected areas of treated plants relative to infected areas of untreated plants (Sclerotinia sclerotiorum [3]): ≤ 10%

C#CCCCOc1cccc(CNC(=S)c2ccc3ncccc3c2)c1F [Compound 202]
infected areas of treated plants relative to infected areas of untreated plants (Sclerotinia sclerotiorum [1]): ≤ 10% | blotches in treated plants [2]: no blotches are found | growth of treated plants [2]: favorably grow at a level equivalent to that of plants that grow in noncontaminated soil | infected areas of treated plants relative to infected areas of untreated plants (Botrytis cinerea): ≤ 10% | growth of treated plants (Gaeumannomyces graminis): favorably grow at a level equivalent to that of plants that grow from noncontaminated seeds | growth of treated plants (Gibberella fujikuroi): favorably grow at a level equivalent to that of plants that have grown from noncontaminated unhulled rice | blotches in treated plants (Fusarium oxysporum): no blotches are found | growth of treated plants (Fusarium oxysporum): favorably grow at a level equivalent to that of plants that grow have in noncontaminated soil

CC(C)Cc1cccc(CNC(=O)c2ccc3ncsc3c2)c1 [Compound 208]
infected areas of treated plants relative to infected areas of untreated plants (Sclerotinia sclerotiorum [1]): ≤ 10% | blotches in treated plants [2]: no blotches are found | growth of treated plants [2]: favorably grow at a level equivalent to that of plants that grow in noncontaminated soil | infected areas of treated plants relative to infected areas of untreated plants (Botrytis cinerea): ≤ 10% | growth of treated plants (Gaeumannomyces graminis): favorably grow at a level equivalent to that of plants that grow from noncontaminated seeds | growth of treated plants (Gibberella fujikuroi): favorably grow at a level equivalent to that of plants that have grown from noncontaminated unhulled rice | blotches in treated plants (Fusarium oxysporum): no blotches are found | growth of treated plants (Fusarium oxysporum): favorably grow at a level equivalent to that of plants that grow have in noncontaminated soil

O=C(NCc1cccc(O)c1F)c1ccc2ncsc2c1 [Compound 211]
infected areas of treated plants relative to infected areas of untreated plants (Sclerotinia sclerotiorum [1]): ≤ 10% | blotches in treated plants [2]: no blotches are found | growth of treated plants [2]: favorably grow at a level equivalent to that of plants that grow in noncontaminated soil | infected areas of treated plants relative to infected areas of untreated plants (Botrytis cinerea): ≤ 10% | growth of treated plants (Gaeumannomyces graminis): favorably grow at a level equivalent to that of plants that grow from noncontaminated seeds | growth of treated plants (Gibberella fujikuroi): favorably grow at a level equivalent to that of plants that have grown from noncontaminated unhulled rice | blotches in treated plants (Fusarium oxysporum): no blotches are found | growth of treated plants (Fusarium oxysporum): favorably grow at a level equivalent to that of plants that grow have in noncontaminated soil

CC(C)CCOc1cccc(CNC(=O)c2ccc3ncsc3c2)c1 [Compound 219]
infected areas of treated plants relative to infected areas of untreated plants (Sclerotinia sclerotiorum [1]): ≤ 10% | blotches in treated plants [2]: no blotches are found | growth of treated plants [2]: favorably grow at a level equivalent to that of plants that grow in noncontaminated soil | infected areas of treated plants relative to infected areas of untreated plants (Botrytis cinerea): ≤ 10% | growth of treated plants (Gaeumannomyces graminis): favorably grow at a level equivalent to that of plants that grow from noncontaminated seeds | growth of treated plants (Gibberella fujikuroi): favorably grow at a level equivalent to that of plants that have grown from noncontaminated unhulled rice | blotches in treated plants (Fusarium oxysporum): no blotches are found | growth of treated plants (Fusarium oxysporum): favorably grow at a level equivalent to that of plants that grow have in noncontaminated soil
